From paper PMC4427203
Results are given in words; binding and its absence hold for the method and conditions named. Some results given as binding are weak or reduced against the parent protein; the word gives no strength.

By UniProt entry, the sequences of proteins in these tests, tags left out. Where a name states a change or a piece, a line headed by the entry shows the natural chain unless it says otherwise.
UniProt P25638: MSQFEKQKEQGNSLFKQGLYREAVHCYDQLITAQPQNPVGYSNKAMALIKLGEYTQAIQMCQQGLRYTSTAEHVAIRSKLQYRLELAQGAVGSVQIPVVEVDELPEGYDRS

B1: AIP 172-315 (domain or fragment, UniProt O00170 172-315)
chain: DEEKAKAVPLIHQEGNRLYREGHVKEAAAKYYDAIACLKNLQMKEQPGSPEWIQLDQQITPLLLNYCQCKLVVEEYYEVLDHCSSILNKYDDNVKAYFKRGKAHAAVWNAQEAQADFAKVLELDPALAPVVSRELRALEARIRQ
B2: full-length AIP (protein, UniProt O00170 1-330)
chain: MADIIARLREDGIQKRVIQEGRGELPDFQDGTKATFHYRTLHSDDEGTVLDDSRARGKPMELIIGKKFKLPVWETIVCTMREGEIAQFLCDIKHVVLYPLVAKSLRNIAVGKDPLEGQRHCCGVAQMREHSSLGHADLDALQQNPQPLIFHMEMLKVESPGTYQQDPWAMTDEEKAKAVPLIHQEGNRLYREGHVKEAAAKYYDAIACLKNLQMKEQPGSPEWIQLDQQITPLLLNYCQCKLVVEEYYEVLDHCSSILNKYDDNVKAYFKRGKAHAAVWNAQEAQADFAKVLELDPALAPVVSRELRALEARIRQKDEEDKARFRGIFSH

What was measured:
[1] = molecular target: Hsp90 600-709 (UniProt P02829); experiment: pull-down; 70 µM Flag-Tah1 and Hsp90 600-709 with increasing AIP 172-315 or full-length AIP (5-10 molar excess); 20 mM HEPES pH 7.5, 150 mM NaCl, 10% glycerol, 0.5% IGEPAL, 2 mM EDTA; captured on anti-Flag M2 magnetic beads; eluate on SDS-PAGE; both purified
[2] = molecular target: Flag-Tah1–cHsp90 complex (S. cerevisiae | not stated) (UniProt P25638+P02829); experiment: condition: fivefold to tenfold excess over 70 µM Flag-Tah1 and Hsp90 600-709; pull-down; 70 µM Flag-Tah1 and Hsp90 600-709 with increasing AIP 172-315 or full-length AIP (5-10 molar excess); 20 mM HEPES pH 7.5, 150 mM NaCl, 10% glycerol, 0.5% IGEPAL, 2 mM EDTA; captured on anti-Flag M2 magnetic beads; eluate on SDS-PAGE; both purified

Binder	binding [1]	binding [2]
B1	binds	no binding
B2	binds	no binding
